Test results published in patent publication US10251959B2, “Oligomer-beta blocker conjugates” (Nektar Therapeutics, priority 2007, dated 2019).
Structures were worked out from names or drawings and are uncertain.

Sequences of proteins named here, by UniProt entry; tags and fusion partners are left off.
UniProt P07550, whole entry: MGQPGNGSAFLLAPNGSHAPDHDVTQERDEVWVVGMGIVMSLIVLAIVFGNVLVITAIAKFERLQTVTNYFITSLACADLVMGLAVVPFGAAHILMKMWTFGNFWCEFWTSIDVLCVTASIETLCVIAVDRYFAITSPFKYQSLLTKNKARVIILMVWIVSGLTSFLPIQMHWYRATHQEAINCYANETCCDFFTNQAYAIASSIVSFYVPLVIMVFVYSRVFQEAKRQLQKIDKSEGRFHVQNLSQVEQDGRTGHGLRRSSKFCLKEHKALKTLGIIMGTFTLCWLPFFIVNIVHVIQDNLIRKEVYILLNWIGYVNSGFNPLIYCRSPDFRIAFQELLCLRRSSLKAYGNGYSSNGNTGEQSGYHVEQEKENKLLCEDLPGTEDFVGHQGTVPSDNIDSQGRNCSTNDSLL

Biological target: adrenergic, beta-2 (human) (Homo sapiens, UniProt P07550)
Test: adrenergic, beta-2 (human) binding assay; HL-60 cells, isoproterenol, EIA read-out
Format: cell-based
Details: Table 3, 300 μM IBMX, 100 nM isoproterenol, 20 minutes at room temperature

COCCOCCOCCOC(CNC(C)(C)C)COc1nsnc1N1CCOCC1 (stereo not shown)
IC50: 4.59 µM
